## Library screen at single concentrations

Measurements from “University of Dundee, Small-Polar-MMV Screening Library” (2021), ChEMBL document CHEMBL3988442.

Results are given as percent effect. The record does not define 0% and 100%; most values in the screen are far below 50% and negative numbers occur (in some assays of this library far below -100). This is an unselected part of the compounds tested.

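Whole-parasite assay of Trypanosoma brucei over 72 hours; the read-out is not stated. Tested at 30 µM. Higher reads as stronger inhibition (inferred: compounds with an IC50 in retests scored well above the rest). Values scatter widely below zero; nearly all retest evidence comes from the higher of the two concentrations used. Of about 64,000 compounds tested this way, about 940 (1.5%) reached 50% or more in at least one test.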

For CC(C)(C)N1CC(c2ncc(-c3ccc4c(c3)OCCO4)[nH]2)CC1=O (centres undefined) the result was -22.33%. With COc1cccc2sc(N3CC(OC(C)=O)C3)nc12 the screen gave -12.4%. For c1ccc(CCN2CCN(C3CCOC4(CCOCC4)C3)CC2)nc1 (centres undefined) the result was -47.91%. For CNC(=O)NC(=O)CN1CCCN(CC(F)(F)F)CC1 the result was 1.175%. O=C(O)C(F)(F)F.[H][C@@]12COC[C@@H](CC(=O)N3CCCCO3)[C@]1([H])CN(CC1CC1)C2 read -5.984%. CCOCC1CCN(C(=O)C(c2ccc(F)cc2)N(C)C)CC1 (centres undefined) read -58.09%. Cn1ccnc1-c1ccc(NC[C@H]2CCc3ccccc3O2)nn1 gave -19.76%.

O=c1cc(C2CCNCC2)nc(Cc2cccc(Cl)c2)[nH]1 read -17.9%. With COc1nc2cc(C)ccc2cc1CN(C)Cc1cc(C)[nH]n1.O=C(O)CC(O)(CC(=O)O)C(=O)O the screen gave -53.45%. Result for Cc1noc(C)c1CN(C)c1nccc(C(F)(F)F)n1 was -56.77%. CCC(C)NS(=O)(=O)Cc1cccc(NC(=O)c2ccc[nH]2)c1 (centres undefined) gave 35.89%. For CC(C)COC(C)C(=O)N1CCCCCC1 (centres undefined) the result was -21.11%. With COc1nccnc1-c1cc(NC2CCNCC2)nc2[nH]ccc12 the screen gave -21.13%. For COc1ccc(-c2cc(C3CCCCCN3S(=O)(=O)N(C)C)on2)cc1 (centres undefined) the result was 21.42%.

Result for COc1cccc(-c2nnn(C3CCN(CC(F)(F)F)C3=O)n2)c1 (centres undefined) was 14.07%. With CC(C)NC(=O)Cn1ccc2c(Cl)cccc21 the screen gave -29.64%. Result for CCc1nc(C2CCCN2C(=O)c2ccoc2C)no1 (centres undefined) was -34.49%. With CCN(C(=O)c1ccc2nncn2c1)C(C)Cc1ccc(OC)cc1 (centres undefined) the screen gave -19.71%. COc1cc(C2C3=C(COC3=O)Nc3[nH]nc(C)c32)cc2c1OCO2 (centres undefined) read -2.655%. [H][C@]12CC[C@]([H])(CN(C3Cc4ccccc4C3)C1)N(Cc1nc(CC)no1)C2 gave 0.5092%. CC(C)C[C@@H](CO)n1cc(-c2cnc(-c3ccco3)nc2)nn1 gave 3.841%.

Result for O=C(c1cccc(C2CCNC2)c1)N1CCC(c2ncc[nH]2)CC1 (centres undefined) was -15.38%. Cc1cc(-c2cc(N)c(=O)n(CC(=O)NC3CCCCC3)n2)c(C)o1 read -25.89%. With CCC1CN(C(=O)c2cc(CN(C)CCc3ccccc3)on2)CCO1 (centres undefined) the screen gave -94.56%. For CCc1nc(C(=O)N2CCCCC2)nn1-c1ccccc1Cl the result was 24.69%. CCCc1n[nH]c(C2CN(C(=O)c3cccc4cn[nH]c34)CCO2)n1 (centres undefined) gave -22.8%. Result for COc1ccc(N(C)Cc2nc3c(cnn3C)c(=O)[nH]2)cc1OC was -5.535%. CCS(=O)(=O)N(C)C1CCN(Cn2ccc(-c3ccc(F)cc3)n2)CC1 gave -8.289%.

Cc1ccc(CN(C(=O)c2cccc(NC(N)=O)c2)C2CC2)o1 read 2.962%. Result for O=C(Nc1ccn(Cc2cccc3cccnc23)n1)C1COCCO1 (centres undefined) was 21.53%. Result for CC(C)N1CC2(CCCN(c3ccnc4ccccc34)C2)CCC1=O (centres undefined) was -42.62%. Result for CCCS(=O)(=O)N1CCc2onc(CNc3ncccn3)c2C1 was -20.42%. For [H][C@]12CC[C@@]3(N=C(C)N(CC(C)C)C3=O)[C@@]1([H])CN(S(=O)(=O)CC)C2 the result was -19.61%. For CC(C)(C)OC(=O)NCC1CCN(C(=O)c2ccc(F)cc2F)C1 (centres undefined) the result was -21.68%. With [H][C@@]12C[C@H](C(=O)N3CCCCO3)CN(C(=O)c3ccoc3C)[C@]1([H])CCO2 the screen gave -3.532%.

For COc1ccccc1OCC(=O)NCC(C)(O)c1ccccc1 (centres undefined) the result was -30.3%. With Cc1[nH]ncc1CCCNC(=O)Nc1ccc(F)cc1 the screen gave -14.65%. For O=C(c1cc(=O)[nH][nH]1)N1CCCC2(CCC(=O)N(C3CCCC3)C2)C1 (centres undefined) the result was 4.002%. Cc1ccc(C(=O)NS(=O)(=O)c2ccccc2C)c(=O)[nH]1 read 1.016%. COCC(=O)N1CCC(c2cc(-c3ccc(OC)cc3)n[nH]2)C1 (centres undefined) read -17.61%. COc1cccc(C(=O)N2C[C@@H](CN(C)CCO)[C@@H](CO)C2)c1C read -43.39%. For Cc1nc(C)n(CC2CCCN2c2ncnc3c2CCC3)n1 (centres undefined) the result was -55.24%.

For CNC(=O)C(C)CNC(=O)c1coc(COc2cccc(F)c2F)n1 (centres undefined) the result was 4.42%. O=C(CCCc1ccccn1)N1CCCC(n2cccn2)C1 (centres undefined) read 10.42%. Result for CC(=O)Nc1nc(C2CN(C(=O)C3CCC3)C2)cs1 was -3.38%. Result for Cc1noc(C)c1-c1cc(C2CCNCC2)ccn1 was 2.282%. With O=C(O)C(F)(F)F.[H][C@@]12CCN(CCc3ccccc3)C[C@@]1([H])[C@H](C(=O)NCC1CC1)CCO2 the screen gave 11.33%. For Cc1ccccc1-c1cncc(C2CCN(Cc3ccccn3)CC2)n1 the result was -6.787%. For O=C(O)C(F)(F)F.[H][C@]12CCN(C(=O)Cc3cccc(OC)c3)CC[C@@]1([H])S(=O)(=O)CCN2C the result was 2.34%.

Cc1cc(NC(=O)CN(C)C2CCCN(c3cccnn3)C2)n(C)n1 (centres undefined) gave 41.24%. For Cc1nc(C)n(CC2CCCN2c2ncnc3sccc23)n1 (centres undefined) the result was -9.223%. With CC(c1cccc(S(N)(=O)=O)c1)N(C)CCOc1ccccc1 (centres undefined) the screen gave -6.404%.

Some entries from above, unchanged:

With CCC(C)NS(=O)(=O)Cc1cccc(NC(=O)c2ccc[nH]2)c1 (centres undefined) the screen gave 35.89%.
With CC(C)N1CC2(CCCN(c3ccnc4ccccc34)C2)CCC1=O (centres undefined) the screen gave -42.62%.
With O=c1cc(C2CCNCC2)nc(Cc2cccc(Cl)c2)[nH]1 the screen gave -17.9%.
With CNC(=O)C(C)CNC(=O)c1coc(COc2cccc(F)c2F)n1 (centres undefined) the screen gave 4.42%.
With CC(=O)Nc1nc(C2CN(C(=O)C3CCC3)C2)cs1 the screen gave -3.38%.